The chains are these.
B1: MTK-221 (antibody, human IgG1, V domains shown)
VH: QVTLKESGPGMLQSSQTLSLTCSFSGFSLSTSGMGVSWIRQPSGKGLEWLAHIYWDDDKRYNTSLQSRLTISKDTSRNQVFLKITSVDTADTATYFCGRLGAYSAFPYYFDYWGQGTTLTVSS
VL: DIQMTQSPSSLSASLGGKVTITCKASQDIHKHIAWYQHKPGKGPRLLIHYTSTLQPGIPSRFSGSGSGRDYSFSISNLEPEDLATYYCLQYDNLWTFGGGTKLEIK
B2: MTK-229 (antibody, human IgG1, V domains shown)
VH: QVQLQQSGPELVKPGASVKISCKASGYEFSRSWMNWVKQRPGKGLEWIGRIYPGDGDTNYKGKLKGQATLTADKSSSTAYMQLSSLTFEDSAVYFCARGGGYYYDSRYEGFVYWGQGTVVTVSA
VL: QIVLTQSPAIMSASPGEEVTMTCSASSSVSYMHWYQQKSGTSPKRWIYDTSKLASGVSGRFSGSGSGTSYSLTISSMEAEDAATYYCQQWSSNPPITFGAGTKLELK
B3: MTK-206 (antibody, human IgG1, V domains shown)
VH: QVQLQQSGAELARPGASVKMSCKASGYTFTSYTMHWVKQRPGQGLEWIGYINPSSGYIKNSQKFKDKATLTADKSSSTAYMQLSSLTSEDSAVYYCARTVYGYYGSSPDYWGQGTTLTVSS
VL: DIQMTQSPSSLSASLGERVSLTCRASQDIGSNLNWLQQEPDGTIKRLIYATSSLESGVPKRFSGSRSGSDYSLTISSLESEDFVDYYCLQYDSSPWTFGGGTKLEIK
B4: MTK-222 (antibody, human IgG1, V domains shown)
VH: QVQLQQSGADLMKPGASVKLSCKATGYTFTGYWIEWVKQRPGHGLEWIGEILTGSGSSNYNEKFKGKATFTADSSSNTAFMQLSSLTTEDSAIYYCAGSYYSNSWFPYWGQGSLVTVSA
VL: DIVLTQSPVSLAVSLGQRATISCRASESVDSYGSSFMHWYQQKPGQPPKLLIYRASSLESGIPARFSGSGSRTDFTLTINPVETDDVATYYCQQSNEDPRTFGGGTKLEIK
B5: MTK-219 (antibody, human IgG1, V domains shown)
VH: QVQLQQSGADLMKPGASVKLSCKATGNTFTGYWIEWVKQRPGHGLEWIGEILTGSGSTNYNERFKGKATFTADTSSNTAYMQLSSLTTEDSAIYYCAGSYFTNSWFPYWGQGSLVTVSA
VL: DIVLTQSPASLAVSLGQRATISCRASESVDSYGNSFMHWYQQKPGQPPKLLIYRAYTLESGIPARFSGSGSRTDFTLTINPVEADDVATYYCQQSNEDPRTFGGGTKLEIK
B6: MTK-210 (antibody, human IgG1, V domains shown)
VH: QVQLQQSGPELVKPGASVKISCKASDYEFSRSWMNWVKQRPGKGLEWIGRIYPGDGDTNYNGKFKGKATLTADKSSNTAYMQLNSLTSEDSAVYFCARKGGYYYSISNYFDYWGQGTTLTVSS
VL: QIVLTQSPAIMSASPGVKVTMTCSASSSVSYMHWYQQKPGSSPRLLIYDTSNLASGVPVRFSGSGSGTSYSLTISRMEAEDAATYYCQQWSSYPPYTFGGGTKLEIK
B7: MTK-227 (antibody, human IgG1, V domains shown)
VH: EVKLVESGGGLVQPGGSLSLSCAASGFTFTDNYMTWVRQPPGKALEWLGFSRNKANGYTTEYSASVKGRFTISRDSSQSILYLQMNALRAEDSGTYYCARFPPHYYAGGYFDVWGTGTTVTVSS
VL: DIQMTQSPASLSASVGETVTITCRASENIYSYLAWYQQKQGKSPQLLVYNAKTLAEGVPSRFSGSGSGTQFSLKINSLQPADFGSYYCQHYYRTPPTFGGGTKLEIK
B8: MTK-204 (antibody, human IgG1, V domains shown)
VH: EVQLVESGGGLVKPGGSLKLSCAASGFTFSDYGMHWVRQAPEKGLEWVAYISSGTSTIYYEDTVKGRFTISRDNAKNTLFLQMTSLRSEDTAMYYCARGGLLFDYWGQGTTLTVSS
VL: NIMMTQSPSSLAVSAGEKVTMSCKSSQSVLYSSNQKNYLAWYQQKPGQSPKLLIQWASTRESGVPDRFTGSGSETDFTLTIRSVQAEDLAVYYCHQYFSSWTFGGGTKLEIK
B9: MTK-231 (antibody, human IgG1, V domains shown)
VH: DVQLQESGPGLVKPSQSLSLTCSVTGYSITSGYYWNWIRQFPGNKLEWMGYISYDGTYNYHPSLKNRISITRDTSKNQFFLTLNSVTTEDTATFYCTRGGGYWGQGTSVTVSS
VL: DVVMTQTPLSLPVSLGDQASISCRSSQSLVHSDGNTYLHWYLQKPGQSPKLLIYKVSNRFSGVPDRFSGSGSGTDFTLKISRLEAEDLGIYFCSQTTHIPLTFGSGTKLEIK

The record followed here is patent US20240294650A1.

No constants are given. Whether binding was seen depends on the method and setting. Some entries that bind do so weakly or less than the wild type. For some of these results: Tags and fused reporters may be left off the sequences shown.

The first experiment addresses MerTK C-terminal ECD Half-and-half chimera (human). The experiment in a line: SPR, construct supernatant over immobilised Ab. (In general: In SPR one partner is held on a chip, and binding of the other changes the refractive index at the surface.)
As for B1, the binding result is “binds”.

Consider B2, for which the binding result was “binds”.

Regarding B3, the binding result is given as “binds”.

In the case of B4, the binding result is given as “binds”.

On to B5, for which the binding result is recorded as “binds”.

On to B6, for which the binding entry is recorded as “binds”.

B7: the binding entry was “binds”.

Another experiment addresses MerTK N-terminal ECD Half-and-half chimera (human). The experiment in a line: SPR, construct supernatant over immobilised Ab.
Turning to B8, the binding entry is listed as “binds”.

Turning to B9, the binding entry is given as “binds”.

Another experiment has as its target T1, His tag-conjugated recombinant Gas6 (human) (UniProt Q14393).
T1 sequence (looked up): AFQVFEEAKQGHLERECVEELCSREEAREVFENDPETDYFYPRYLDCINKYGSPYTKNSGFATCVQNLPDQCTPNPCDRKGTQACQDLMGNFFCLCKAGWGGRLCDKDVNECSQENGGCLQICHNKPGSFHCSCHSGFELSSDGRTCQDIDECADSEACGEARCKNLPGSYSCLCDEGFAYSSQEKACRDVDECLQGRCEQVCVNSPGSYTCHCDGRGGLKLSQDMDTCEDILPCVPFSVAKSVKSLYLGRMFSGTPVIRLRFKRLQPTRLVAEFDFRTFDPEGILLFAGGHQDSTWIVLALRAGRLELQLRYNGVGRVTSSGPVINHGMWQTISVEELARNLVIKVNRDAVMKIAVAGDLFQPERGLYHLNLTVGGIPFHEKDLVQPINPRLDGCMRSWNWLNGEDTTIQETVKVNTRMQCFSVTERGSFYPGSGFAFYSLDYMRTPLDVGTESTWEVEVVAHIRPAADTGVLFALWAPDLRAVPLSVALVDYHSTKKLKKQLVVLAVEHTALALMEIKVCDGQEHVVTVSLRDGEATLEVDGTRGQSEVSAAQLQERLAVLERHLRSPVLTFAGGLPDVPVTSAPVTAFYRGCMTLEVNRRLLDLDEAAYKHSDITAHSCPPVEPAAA
Kind of experiment: ELISA, captured Ab, Gas6-His 1.5 ug/ml, no MerTK. A general note: In an ELISA, binding on a coated surface is turned into a signal by an enzyme label.
Take B9: the binding entry is “binds”.
